From PubChem BioAssay AID662 (National Center for Advancing Translational Sciences (NCATS), 2007) come the findings set out here.

The other results are listed elsewhere or left out. The main result of the screen is listed elsewhere. These columns were measured beside it and carry no call. Compounds called inactive in the main read-out are mostly missing here. The note in brackets gives the kind of curve behind each potency; many fits are weak.

This experiment can be described thus: Cell signaling CRE-BLA (Fsk stim). The conditions noted are these: CHO CRE-bla reporter (cAMP response element driving beta-lactamase), forskolin EC10, beta-lactamase ratio; measured here: 460 nm blue channel. An outline of the steps: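 Modulation of forskolin-driven signalling is measured in CHO cells carrying a CRE-controlled beta-lactamase reporter. Cells are stimulated with EC10 NKH 477 in the presence of titrated compound for 3 h at 37 °C, then loaded with CCF4 for 2 h at room temperature.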
For the compound `COc1ccc(CNS(=O)(=O)c2ccc3oc(C(=O)O)c(C)c3c2)cc1`, the AC50 was 5.01 µM [falling, single point].
On to `O=C(c1cccs1)N1CCCC(c2nc(-c3ccc(F)cc3)no2)C1` (stereo not drawn), for which the AC50 was 15.8 µM [rising, partial curve].
For `Cc1cc2nn(-c3ccccc3)nc2cc1NC(=O)c1cccs1` the value was 6.31 µM [falling, partial curve].
For `Cc1ccc(-c2noc(C3CCCN(C(=O)c4c(F)cccc4F)C3)n2)cc1` (stereo not drawn), the AC50 was 5.01 µM [falling, single point].
Turning to `Cc1nc2ccccc2c(=O)n1/N=C/c1ccc(O)cc1`, the AC50 is 5.01 µM [rising, full curve, poor fit].
For `Cc1cnn(-c2nc(-c3cccs3)cc(C(F)(F)F)n2)c1` the value was 12.6 µM [rising, partial curve]; for `Cc1ccc(NC(=O)CCn2cnc3ccccc3c2=O)cc1Cl`, 12.6 µM [rising, single point]; for `COc1cccc(Nc2ncc3nc(-c4cn(C)c5ccccc45)c(=O)n(C[C@H]4CCCO4)c3n2)c1`, 12.6 µM [rising, partial curve].
As for `COC(=O)CC(=O)CSc1nc2c(cc1C#N)CCCCC2`, the AC50 is 12.6 µM [rising, single point].
With `Cc1ccc(SC(C)c2nc(-c3ccncc3)no2)cc1` (stereo not drawn), the AC50 was 12.6 µM [rising, partial curve].
As for `C=CCn1c(=O)[nH]c2cc(C(=O)N3CCN(c4ccc(C(C)=O)cc4)CC3)ccc2c1=O`, the figure is 7.94 µM [rising, partial curve, poor fit]; as for `CCC(C)(C)n1nnnc1C(c1cc2ccc(OC)cc2[nH]c1=O)N1CCc2ccccc2C1` (stereo not drawn), 25.1 µM [rising, single point].
For `c1ccc(COc2ccc(Nc3ncnc4nc[nH]c34)cc2)cc1` the value was 10 µM [rising, partial curve].
Take `Cc1cc(=O)oc2cc3c(cc12)OCCN3`: the AC50 was 10 µM [rising, partial curve].
In the case of `O=C(c1ccccc1)c1cccn1CC(=O)N1CCN(c2ccccc2)CC1`, the concentration at half-maximal activity (AC50) was 0.251 µM [falling, full curve, poor fit].
For `COCCn1c(-c2cc(OC)c(OC)c(OC)c2)nc2oc3ccccc3c(=O)c2c1=O` the value was 2 µM [rising, full curve]; for `CC(=O)NCCn1c(SCc2ccccc2F)nc2ccccc2c1=O`, 7.94 µM [rising, partial curve].
Consider `CCNc1nc(OC)nc(Oc2ccc(=O)n(-c3ccccc3)n2)n1`, for which the AC50 is 12.6 µM [rising, single point].
Regarding `CCOc1ccc(NC(=O)C2CC(C)=C(C)CC2C(=O)O)cc1` (stereo not drawn), the AC50 was 1.58 µM [falling, partial curve].
For `Cc1cc(C)n(-c2ccc(C(=O)OCc3nnc(-c4ccccc4)o3)cc2)n1` the value was 15.8 µM [falling, single point]; for `S=c1[nH]c2ncccc2o1`, 5.01 µM [falling, single point]; for `COC(=O)c1ccccc1NS(=O)(=O)c1cn(C)c(=O)n(C)c1=O`, 25.1 µM [rising, single point].
For `Cn1c(=O)c2c(-c3ccc(C(C)(C)C)cc3)n(N3CCOCC3)cc2n(C)c1=O` the value was 0.00316 µM [rising, full curve, poor fit]; for `O=C(CSc1nc2cc(Cl)ccc2s1)c1ccco1`, 25.1 µM [rising, single point]; for `CCC1(C)NC(=O)N(CC(=O)Nc2sc3c(c2C(N)=O)CCC3)C1=O` (stereo not drawn), 0.00316 µM [falling, full curve, poor fit].
For `Cc1ccc(-c2nc3ncccn3c2NC2CCCC2)o1` the value was 0.00316 µM [falling, full curve, poor fit].
As to `COc1ccc(C(=O)CSc2nnc(CNc3ccc(C)cc3C)n2Cc2ccco2)cc1`, the AC50 was 0.398 µM [falling, full curve, poor fit].
Regarding `COC(=O)Cc1cc(=O)[nH]c(Nc2nc3ccccc3o2)n1`, the AC50 was 1 µM [falling, partial curve, poor fit].
Consider `COc1ccc(C(c2sc3nc(C)nn3c2O)N2CCC(O)CC2)cc1OC` (stereo not drawn), for which the AC50 is 2.51 µM [rising, full curve].
With `COc1cccc(-c2nc(CS(=O)(=O)CC(=O)NCCCN3CCc4ccccc4C3)c(C)o2)c1`, the AC50 was 12.6 µM [falling, single point].
Turning to `O=C(CSc1nnc(-c2ccco2)o1)c1ccc(F)c(F)c1`, the AC50 was 25.1 µM [rising, single point].
For `COc1ccc(C2C=C(c3ccccc3)Nc3ncnn32)cc1` (stereo not drawn), the AC50 was 25.1 µM [rising, single point].
For `O=C(Nc1cccc(C(=O)N2CCCC2)c1)c1ccccc1`, the AC50 was 0.794 µM [rising, full curve].
Turning to `O=c1[nH]c2ccc(Cl)cc2c(-c2ccccc2)c1N1CCOCC1`, the AC50 was 15.8 µM [rising, single point].
With `Cc1ccc(C)c(S(=O)(=O)Nc2ccccc2C(=O)Nc2cc(C)on2)c1`, the AC50 is 3.98 µM [falling, partial curve].
As for `CCN(CC)C(=O)C1CCCN(Cc2ccccc2C(F)(F)F)C1` (stereo not drawn), the figure is 0.398 µM [rising, full curve].
In the case of `C=CC(=O)OCCCCCCOC(=O)C=C`, the AC50 was 15.8 µM [falling, partial curve].
As for `CCN(CCCNC(=O)CN(C)S(=O)(=O)c1cccc2nsnc12)c1ccccc1`, the figure is 15.8 µM [rising, single point].
For `CN(C)c1nc(-c2ccoc2)nc2ccccc12`, the AC50 is 10 µM [rising, partial curve].
For `COc1ccc(CCNC(=O)c2cc(-c3ccccc3OC)on2)cc1OC` the value was 0.316 µM [rising, single point]; for `O=C(CCc1nc(-c2ccccc2F)no1)NCCc1ccccc1Cl`, 3.16 µM [falling, full curve]; for `O=C(NCCCN1CCOCC1)NC12CC3CC(CC(C3)C1)C2`, 5.01 µM [falling, single point].
In the case of `c1ccc(CN(CC2=NCCN2)c2ccccc2)cc1`, the AC50 is 10 µM [falling, partial curve, poor fit].
For `O=C(NCC1CCCO1)c1sc(=S)n2c1[nH]c(=O)c1ccc(C(=O)N3CCCCC3)cc12` (stereo not drawn) the value was 1 µM [rising, partial curve].
Regarding `O=C(Nc1ccc(Oc2ccc(NC(=O)C3CCCO3)cc2)cc1)C1CCCO1` (stereo not drawn), the concentration at half-maximal activity (AC50) is 0.398 µM [rising, partial curve].
As for `CCC(C)Nc1nc2c(c(=O)[nH]c(=O)n2C)n1CCC(C)C` (stereo not drawn), the AC50 was 10 µM [rising, partial curve].
With `CC1Cc2ccccc2N1C(=O)CSc1nc2c(c(=O)n(C)c(=O)n2C)n1Cc1ccccc1` (stereo not drawn), the AC50 was 2.51 µM [rising, full curve].
With `CCOC(=O)c1cccc2c1-c1ccccc1/C2=N/O`, the AC50 was 0.398 µM [falling, full curve, poor fit].
As for `Cc1cc(N)n(-c2nc(-c3cccnc3)nc3ccccc23)n1`, the AC50 is 3.16 µM [rising, full curve].
For `COc1ccccc1-c1nc(Nc2ccncc2)c2ccccc2n1` the value was 5.01 µM [rising, single point].
Take `CC(=O)n1nc(-c2ccco2)nc1N`: the AC50 is 0.316 µM [falling, partial curve].
On to `N#Cc1c2n(c3c(=O)n(Cc4ccc(Cl)cc4)cnc13)CCCC2`, for which the AC50 was 10 µM [rising, partial curve].
With `COC(=O)c1ccccc1NC(=O)CSc1nc(NC(=O)c2ccccc2)c2c(C)c(C)oc2n1`, the AC50 was 3.16 µM [rising, partial curve].
For `CC(=O)Nc1nc2ncc(C=O)nc2c(=O)[nH]1`, the AC50 is 0.158 µM [rising, full curve, poor fit].
For the compound `Cc1ccccc1S(=O)(=O)Cc1ccc(C(=O)NCCCOC(C)C)o1`, the AC50 was 25.1 µM [falling, single point].
In the case of `O=c1c(-c2ccc(Cl)cc2)nc2cnc(N3CCOCC3)nc2n1C[C@H]1CCCO1`, the AC50 is 0.794 µM [rising, full curve].
On to `Cn1c2ccccc2c2nnc(SCc3ccc4nonc4c3)nc21`, for which the AC50 is 6.31 µM [rising, partial curve].
In the case of `COc1ccc(N2CCN(S(=O)(=O)c3ccc(OC)cc3)CC2)cc1`, the AC50 is 0.631 µM [rising, full curve].
As for `CSc1nsc(SC)c1C(=O)OCC(F)(F)F`, the figure is 10 µM [rising, partial curve]; as for `CCOc1ccc2nc(-c3ccc(OC)c(OC)c3)cc(C(=O)O)c2c1`, 12.6 µM [rising, single point].
Regarding `CN(Cc1ccccc1)Cc1nc2c(c(=O)n(C)c(=O)n2C)n1Cc1ccc(Cl)cc1`, the AC50 was 15.8 µM [rising, single point].
Regarding `COc1ccccc1-c1nnc2sc(-c3ccc(N(C)C)cc3)nn12`, the AC50 was 0.398 µM [rising, full curve].
`O=C(NCCN1CCN(c2ccccc2)CC1)c1cccc(Br)c1`: the AC50 was 0.1 µM [falling, full curve, poor fit].
For the compound `N#CCc1ccc(NC(=O)Nc2cccc(Cl)c2)cc1`, the AC50 was 25.1 µM [rising, single point].
On to `CCC/C=C(\CCC)C(NC(=O)OCC(C)C)c1ccc(C(=O)OC)cc1` (stereo not drawn), for which the AC50 was 5.01 µM [rising, single point].
Consider `COCCn1c(=O)c(-c2ccc(F)cc2)nc2cnc(N3CCOCC3)nc21`, for which the half-maximal activity concentration (AC50) was 2.51 µM [rising, full curve].
`Cn1c(=O)c(-c2ccc(Cl)cc2)nc2cnc(N3CCOCC3)nc21`: the AC50 was 5.01 µM [rising, partial curve].
On to `CCOC(=O)CNC(=O)CSc1nc(N)cc(N)n1`, for which the AC50 was 15.8 µM [falling, single point].
